Measured values taken from US20110086089A1, “USE OF P27KIP1 FOR THE PREVENTION AND TREATMENT OF HEART FAILURE” (UNIVERSITY HEALTH NETWORK, priority 2008, published 2011).

System: WT mice
Assay: Reversal of established Ang II-dependent cardiac hypertrophy (16 days infusion, injections from day 8)
Assay type: in vivo
Conditions: Ang II infusion 16 days; daily i.p. injections 20 mg/kg initiated at day 8
From the text: FIG. 10 is the experimental treatment protocol. To examine the therapeutic effect of p27 on established cardiac hypertrophy, p27 injections were initiated at 8 days after Ang II-infusion.
To examine the effect of transduced p27 on established cardiac hypertrophy, mice were chronically infused with Ang II for 16 days and intraperitoneally injected recombinant TAT-conjugated p27ΔPi and beta-galactosidase (β-Gal) proteins starting from day 8. After 16 days of Ang II-infusion, the heart/body weight ratio were increased by 45% compared to saline-infused controls (FIG. 11B; group 7 vs. group 6). […] Transduced p27ΔPi regressed the increase in heart size by 47% as compared to β-Gal control injections (group 3 vs group 4). In Ang II-infused mice treated with p27ΔPi values of left ventricular posterior wall and interventricular septum thickness, LVEDD, LVESD, FS and EF were not significant different compared to saline-infused mice. Thus, p27 can reverse established compensated cardiac hypertrophy without exerting any deleterious effect on cardiac function. […]
After fixation in paraformaldehyde (4% in PBS, pH 7.4), a transverse midsection (3 μm thickness) was stained with Alexa Fluor® 488-conjugated wheat germ agglutinin for cross sectional measurements. Cardiomycoyte area was determined by planimetry employing ImageJ software. A total of 200 cells were counted in each group.

TAT-β-Gal: recombinant TAT-conjugated beta-galactosidase, control injections
Body weight: 24 ± 1.2 g
Heart rate: 511 ± 24 b.p.m.
